Measured values as given in publication PMC5048338, “Discovery of 4,6-disubstituted pyrimidines as potent inhibitors of the heat shock factor 1 (HSF1) stress pathway and CDK9” (Medchemcomm, 2016).

Test system: HSF1-mediated HSP72 induction
Assay: Cell-based ELISA (Cellisa) for HSP72 expression
Settings: Homo sapiens, U2OS, read-out: HSF1 IC50 (cell-ELISA, HSP72 induction inhibition)

CCc1cnn2c(NCc3ccc[n+]([O-])c3)cc(N3CCCC[C@H]3CCO)nc12 [Dinaciclib, dinaciclib]
IC50: 7 nM
